Data: PubChem BioAssay AID2685 (National Center for Advancing Translational Sciences (NCATS), 2010)
The other results are listed elsewhere or left out. Shown are side measurements of this screen, not its main read-out; they come without a call. The list favours compounds with an active or inconclusive main result. The note in brackets gives the kind of curve behind each potency; many fits are weak.

Assay: qHTS Assay for Lipid Storage Modulators in Drosophila S3 Cells;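 for cell number change: cells counted by Cell Tracker Red CMTPX staining in the red channel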
Details: BODIPY lipid droplet fluorescence, 18-24 h; for cell number change: measured here: cell count max response, cells fed with added oleic acid
How it was run: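 Drosophila S3 cells loaded with oleic acid (400 uM, as added) and compounds at several concentrations; lipid droplets imaged by 488-nm laser-scanning cytometry, 500–530 nm intensity and object ratio to cell channel. Percent activity normalized to 20 uM Triacsin C.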

[1] = measured here: lipid fluorescence (Fed channel) AC50, cells fed with added oleic acid
[2] = measured here: cell number channel AC50, cells fed with added oleic acid

Compound: O=S1OCCN1c1ccccc1 (configuration not stated)
- cell number change: 11.3%
- AC50 [1]: 29.1 µM [rising, single point]

Compound: CCCC(c1nnnn1CC(=O)OCC)N(Cc1cc2ccc(C)cc2[nH]c1=O)C1CCCC1 (configuration not stated)
- cell number change: -26.9%
- AC50 [2]: 3.26 µM [falling, full curve, poor fit]

Compound: Cc1ccc(NC(=O)CN2C(=O)NC(C)(C3CC3)C2=O)c(C)c1 (configuration not stated)
- cell number change: -39.3%
- AC50 [2]: 5.8 µM [falling, single point]
- AC50 [1]: 29.1 µM [falling, single point]

Compound: COCCN(C(=O)COC(=O)c1cc2ccccc2cc1O)c1c(N)n(Cc2ccccc2)c(=O)[nH]c1=O
- cell number change: -10.4%
- AC50 [1]: 23.1 µM [falling, single point]

Compound: N#Cc1ccccc1Cn1c(-c2cscn2)nc2ccccc21
- cell number change: 13.1%
- AC50 [1]: 0.0731 µM [rising, full curve, poor fit]

Compound: Cc1cc2cc(CNC(=O)Cc3cccs3)ccc2n1C
- cell number change: 6.12%
- AC50 [1]: 2.59 µM [rising, full curve, poor fit]

Compound: CCCCc1cc(=O)oc2cc(OC(C)C(=O)NCCN3CCOCC3)c(Cl)cc12 (configuration not stated)
- cell number change: -0.597%
- AC50 [1]: 3.26 µM [falling, partial curve]

Compound: CCc1cccc(NC(=O)C2CCCN2C(=O)Nc2ccc(C)cc2)c1 (configuration not stated)
- cell number change: -11.4%

Compound: COc1cccc(C2=NOC(C(=O)NCc3cccnc3)C2)c1 (configuration not stated)
- cell number change: 6.94%

Compound: COc1ccc(N(CC(=O)N/N=C/c2ccc3c(c2)OCO3)S(=O)(=O)c2ccccc2)cc1
- cell number change: 164%
- AC50 [2]: 0.116 µM [rising, full curve, poor fit]
- AC50 [1]: 0.13 µM [rising, full curve, poor fit]

Compound: C=CCC1(CC=C)CCCN1C(=O)C1CCC(=O)N(CCc2ccccc2)C1 (configuration not stated)
- cell number change: -56.1%
- AC50 [2]: 23.1 µM [falling, partial curve]
- AC50 [1]: 29.1 µM [falling, single point]

Compound: O=C(C1CCC(CNS(=O)(=O)c2ccccc2)CC1)N1CCOCC1 (configuration not stated)
- cell number change: 15.5%
- AC50 [1]: 13 µM [falling, single point]

Compound: COCc1cc(=O)n2[nH]c(C)c(-c3ccccc3)c2n1
- cell number change: -0.263%

Compound: CC1=NN(CCC#N)C(=O)/C1=C/c1ccc(N(C)C)cc1
- cell number change: 5.28%

Compound: Cn1ncc(Cl)c1C(=O)N1CCC(Cc2ccccc2)CC1
- cell number change: 13.6%
- AC50 [1]: 29.1 µM [rising, single point]

Compound: CCc1ccc(C(C(=O)NC2CCCC2)N(CCOC)C(=O)CCC(=O)Nc2cc(C)on2)cc1 (configuration not stated)
- cell number change: 25.7%
- AC50 [1]: 6.51 µM [falling, partial curve]

Compound: COc1ccc(N2C(=O)CCC(C(=O)NCc3ccccn3)C2c2ccc(OC)c(OC)c2)cc1 (configuration not stated)
- cell number change: -80.1%
- AC50 [2]: 13 µM [falling, partial curve]

Compound: Cc1ccc(-c2cc(C(=O)N3CCN(c4ncccn4)CC3)c3cc(Br)ccc3n2)o1
- cell number change: 46.5%

Compound: Cc1ccc(SC(C)C(=O)Nc2ccccc2-c2ccccc2)cc1 (configuration not stated)
- cell number change: 2.09%

Compound: COc1ccc(C(=O)c2cnc[nH]2)cc1
- cell number change: -20.2%
- AC50 [2]: 0.00517 µM [falling, full curve]

Compound: Cc1cc(=O)n(C)c(=O)n1CCCCCCOc1ccc([N+](=O)[O-])cc1
- cell number change: -1.55%

Compound: Cc1cccc(-c2nc(CN3CCCC(C(=O)NC4CCCCC4)C3)c(C)o2)c1 (configuration not stated)
- cell number change: -58.6%
- AC50 [2]: 29.1 µM [falling, single point]

Compound: CCOC(=O)c1c(/N=C/N(C)C)sc(/C=N/Nc2ccccc2)c1-c1ccccc1
- cell number change: -38.4%
- AC50 [2]: 29.1 µM [falling, single point]
- AC50 [1]: 0.164 µM [rising, full curve, poor fit]

Compound: Cc1ccc(S(=O)(=O)N2CCC(C(=O)NC3CCCC3)CC2)cc1Cl
- cell number change: 8.26%
- AC50 [1]: 2.91 µM [falling, single point]

Compound: COC(=O)C1CSC(c2ccc(Cl)cc2)N1C(=O)c1ccccc1 (configuration not stated)
- cell number change: -45.6%
- AC50 [2]: 0.103 µM [falling, full curve]
- AC50 [1]: 23.1 µM [falling, partial curve]

Compound: Cc1nnc(-c2cnn(C)c2N)n1Cc1ccccc1
- AC50 [1]: 0.651 µM [falling, full curve, poor fit]

Compound: COc1ccc(-n2nc(C(=O)NCC(=O)NCCCN3CCCCCC3)c3ccccc3c2=O)cc1Cl
- cell number change: -31.9%

Compound: COc1ccc(N2CCN(S(=O)(=O)CCNC(=O)COc3ccccc3OC)CC2)cc1
- AC50 [1]: 6.51 µM [rising, single point]

Compound: COc1ccccc1CNC(=O)CCc1nc2ccccc2c(=O)[nH]1
- cell number change: 41.9%
- AC50 [2]: 9.2 µM [rising, partial curve, poor fit]
- AC50 [1]: 16.4 µM [rising, partial curve]

Compound: O=C(NCCN1CCOCC1)c1cc2sccc2n1Cc1ccc(F)cc1
- cell number change: 40.9%
- AC50 [2]: 0.291 µM [rising, partial curve, poor fit]

Compound: Cc1cc(C)n2cc(CSc3nncn3C)nc2n1
- cell number change: -30.5%
- AC50 [1]: 35.5 µM [falling, partial curve, poor fit]

Compound: C[C@@]12C(=O)N(CC3CC3)CC(=O)N1[C@H](/C=C/c1ccccc1)[C@@H]1C(=O)N(c3ccccc3)C(=O)[C@@H]12
- cell number change: 0.299%
- AC50 [1]: 29.1 µM [falling, single point]

Compound: COc1ccc(CNC(=O)/C=C/C(=O)O)cc1OC
- cell number change: 27.5%
- AC50 [1]: 0.058 µM [rising, single point]

Compound: Cc1ccc(NC(=S)N(Cc2cccs2)Cc2cc3cccc(C)c3[nH]c2=O)cc1
- cell number change: 8.01%
- AC50 [1]: 4.61 µM [rising, single point]

Compound: COC(=O)c1c(C(=O)OC)c(-c2cccc(F)c2)n2c1CS(=O)(=O)C2
- cell number change: 31.5%
- AC50 [2]: 0.326 µM [rising, full curve, poor fit]

Compound: COC(=O)c1cc(OC)c(OC)cc1NC(=S)N1CCCC(CO)C1 (configuration not stated)
- cell number change: 20.6%

Compound: O=C(NNC(=O)c1ccccc1O)c1ccc(Cl)c(S(=O)(=O)N2CCCCC2)c1
- cell number change: 19.3%

Compound: O=C(COC(=O)c1cc(S(=O)(=O)N2CCCCC2)ccc1N1CCOCC1)NC1CCS(=O)(=O)C1 (configuration not stated)
- cell number change: -2.6%
- AC50 [2]: 0.164 µM [rising, full curve, poor fit]
- AC50 [1]: 0.326 µM [rising, full curve]

Compound: CC(C)COC(=O)C1C2C=CC3(CN(C4CCCC4)C(=O)C13)O2 (configuration not stated)
- cell number change: -44.8%
- AC50 [2]: 1.3 µM [falling, full curve]
- AC50 [1]: 4.11 µM [falling, full curve]

Compound: Cc1nc(SCC(=O)c2ccc(Cl)s2)c2oc3ccccc3c2n1
- cell number change: 22.9%
- AC50 [1]: 3.66 µM [falling, partial curve]

Compound: O=C(Nc1cccc(S(=O)(=O)N2CCCCC2)c1)c1ccc(S(=O)(=O)C(F)F)cc1
- cell number change: -15.1%
- AC50 [2]: 0.00461 µM [rising, full curve, poor fit]

Compound: C/C(N)=C(/C#N)C(=O)CSc1nc2scc(-c3ccccc3)c2c(=O)n1C
- cell number change: 22.5%
- AC50 [1]: 13 µM [rising, partial curve, poor fit]

Compound: OCC[C@H]1C[C@H](O)[C@@H](O)[C@@]2(Cc3ccccc3O2)O1
- cell number change: 29.2%

Compound: Cc1ccccc1N1CCN(S(=O)(=O)c2nnc(NC(=O)c3ccco3)s2)CC1
- cell number change: 9.79%

Compound: CCOc1ccc2[nH]cc(S(=O)(=O)c3ccc(F)cc3)c(=O)c2c1
- cell number change: -47.8%
- AC50 [2]: 9.2 µM [falling, partial curve]
- AC50 [1]: 7.31 µM [falling, partial curve]

Compound: CC(=O)Oc1c(C)c2c3c(c1OC(C)=O)[C@@H](C)CC[C@@H]3[C@@H](C)C[C@H]2C=C(C)C
- cell number change: -30.8%
- AC50 [2]: 9.2 µM [falling, single point]
- AC50 [1]: 4.61 µM [falling, single point]

Compound: CCn1cc(C(=O)Nc2ccc(NC(=O)c3ccco3)cc2)c(=O)c2ccc(C)nc21
- cell number change: -35.8%
- AC50 [2]: 0.731 µM [falling, full curve]
- AC50 [1]: 0.58 µM [falling, full curve]

Compound: O=C(CSc1nnc(-c2ccco2)n1-c1ccccc1)NCc1ccc2c(c1)OCO2
- cell number change: 8.9%
- AC50 [1]: 0.00461 µM [falling, full curve, poor fit]

Compound: Cc1ccc(C(C)C)c(OCCCCCN2CCOCC2)c1
- cell number change: 19.8%
- AC50 [1]: 0.58 µM [falling, single point]

Compound: C=CCOC(=O)C1=C(C)OC(N)=C(C#N)C1c1ccc2c(c1)OCO2 (configuration not stated)
- AC50 [2]: 0.146 µM [rising, full curve]
- AC50 [1]: 0.461 µM [rising, full curve]

Compound: CCOC(=O)C1CCN(C(=O)c2cc(OCC)c(OCC)c(OCC)c2)CC1
- cell number change: -51%
- AC50 [2]: 29.1 µM [falling, single point]

Compound: Cn1cc(S(=O)(=O)c2ccccc2)c(=O)c2cc(Cl)ccc21
- cell number change: 7.37%
- AC50 [1]: 6.51 µM [rising, partial curve, poor fit]

Compound: Cc1ccccc1OCCNC(=O)CSc1ccc(C(F)(F)F)cc1[N+](=O)[O-]
- cell number change: 17.9%
- AC50 [1]: 0.0291 µM [rising, full curve, poor fit]

Compound: Cc1cc(NC(=O)COC(=O)C(Nc2ccc(C(F)(F)F)cc2Cl)C(C)C)no1 (configuration not stated)
- cell number change: -136%
- AC50 [2]: 9.2 µM [falling, partial curve]
- AC50 [1]: 29.1 µM [falling, partial curve]

Compound: CCOC(=O)C1=C(COc2ccccc2)NC(=O)NC1c1cccc([N+](=O)[O-])c1 (configuration not stated)
- AC50 [1]: 20.6 µM [falling, partial curve]

Compound: CCCNC(=O)c1ccc(N2CC3CC(C2)c2cccc(=O)n2C3)c(NC(=O)Nc2ccc(CC)cc2)c1 (configuration not stated)
- AC50 [1]: 18.4 µM [rising, partial curve, poor fit]

Compound: O=C(C1CCCN(Cc2ccccc2[N+](=O)[O-])C1)N1CCCCC1 (configuration not stated)
- cell number change: -14.4%

Compound: CC(OC(=O)c1ccccc1NCCO)C(=O)NC1CCCCC1C (configuration not stated)
- cell number change: -20.1%

Compound: Cc1nn(C)c(Cl)c1CN1CCN(C2CCCC2)C(CCO)C1 (configuration not stated)
- cell number change: 5.48%
- AC50 [1]: 0.82 µM [rising, single point]
